# Inconclusive means that the source gave no clear call. Such entries were picked first, then a sample of the others. A potency beside an inconclusive call is a rough fit, not a confirmed value. Active and inactive are the calls of the source. Rule for the calls: active = hit-call score of the fitted dose curve at least 0.9, where 1 is the maximum; inconclusive = response in the unintended direction; inactive = score below 0.9.
# The chains behind the UniProt entries cited, without tags or fusion partners. Where a name states a change or a piece, a line headed by the entry shows the natural chain unless it says otherwise.
# UniProt Q4V8E0: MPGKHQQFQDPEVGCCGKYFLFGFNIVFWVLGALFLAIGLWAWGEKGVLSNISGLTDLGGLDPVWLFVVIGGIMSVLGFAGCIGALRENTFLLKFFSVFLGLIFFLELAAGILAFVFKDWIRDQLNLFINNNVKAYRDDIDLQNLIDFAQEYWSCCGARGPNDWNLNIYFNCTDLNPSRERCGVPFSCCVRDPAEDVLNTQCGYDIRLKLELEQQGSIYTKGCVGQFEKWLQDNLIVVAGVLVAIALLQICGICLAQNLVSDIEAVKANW
# Target: rat Gamma-HydroxyButyrate Receptor (GHB), Tspan17 (gene 306771) (UniProt Q4V8E0)
# Assay: NVS_GPCR_rGHB: NovaScreen (NVS) G Protein-Coupled Receptor Assay for rat Gamma-HydroxyButyrate Receptor (GHB)
# Protocol: NVS_GPCR_rGHB is a biochemical, single-readout assay that uses extracted gene-proteins from Rat forebrain in a tissue-based cell-free assay. Measurements were taken 1 hour after chemical dosing in a 48-well plate.NVS_GPCR_rGHB is one of one assay component(s) measured or calculated from the NVS_GPCR_rGHB assay. It is designed to make measurements of radioligand binding, a form of binding reporter, as detected with scintillation counting signals by Filter-based radiodetection technology.Data from the assay component NVS_GPCR_rGHB was analyzed into 1 assay endpoint. This assay endpoint, NVS_GPCR_rGHB, was analyzed in the positive analysis fitting direction relative to DMSO as the negative control and baseline of activity. Using a type of binding reporter, loss-of-signal activity can be used to understand changes in the binding as they relate to the gene Tspan17. Furthermore, this assay endpoint can be referred to as a primary readout, because the performed assay has only produced 1 assay endpoint. To generalize the intended target to other relatable targets, this assay endpoint is annotated to the gpcr intended target family, where the subfamily is metabotropic glutamate receptor.
# Binding assays used specific radioligands (tritiated, iodinated) with non-radioactive competitive displacement ligands in agonist or antagonist protocols (as indicated) and various reference compounds and inhibitors to titrate specific binding to receptors and transporters. Most enzyme assays (CYPs, kinases, phosphatases, proteases, HDACs) used recombinant protein and specific substrates (fluorescence mostly, some colorimetric and radioactive) and inhibitors, followed by a biochemical separation of substrate and product. All assays for the biochemical HTS were initially run in duplicate at a single concentration (10 uM for CYP450 assays and 25 uM for all others). Assay-chemical combinations meeting a pre-defined threshold (e.g., 30% inhibition and other criteria defined below) were then run in singleton concentration-response format with maximum concentration of 20 uM for CYPs and 50 uM for all others. Each assay was run with positive and negative controls, and concurrent controls on every plate. The follow-up (secondary) screen tested active chemical-pairs in concentration series, as well as a few additional assays not tested in the primary screen, some selected negative inactives, and several cases re-run in the concentration series for confirmatory purposes.
SMILES,AC50,outcome
CCOC1Oc2ccc(OS(C)(=O)=O)cc2C1(C)C (configuration not stated),inconclusive: 0.0811 µM,
CC[C@H](C)[C@H]1O[C@]2(C=C[C@@H]1C)C[C@@H]1C[C@@H](C/C=C(\C)[C@@H](O[C@H]3C[C@H](OC)[C@@H](O[C@H]4C[C@H](OC)[C@@H](NC)[C@H](C)O4)[C@H](C)O3)[C@@H](C)/C=C/C=C3\CO[C@@H]4[C@H](O)C(C)=C[C@@H](C(=O)O1)[C@]34O)O2,inconclusive: 0.353 µM,
ClC1C(Cl)C(Cl)C(Cl)C(Cl)C1Cl (configuration not stated),inconclusive: 0.692 µM,
Clc1nc(Cl)nc(Nc2ccccc2Cl)n1,active: 18.6 µM,
CC(C)Oc1cccc(NC(=O)c2ccccc2C(F)(F)F)c1,,inactive
CC(C1CC1)C(O)(Cn1cncn1)c1ccc(Cl)cc1 (configuration not stated),,inactive
CCOP(=O)(OCC)Oc1nc(Cl)c(Cl)cc1Cl,,inactive
CCOC(=O)CC(SP(=O)(OC)OC)C(=O)OCC (configuration not stated),inconclusive: 0.171 µM,
CN(C)C(=S)S,inconclusive: 25 µM,
COP(=S)(OC)Oc1nc(Cl)c(Cl)cc1Cl,,inactive
CO[C@@H]1[C@H](OC(=O)NC(=O)CCl)CC[C@]2(CO2)[C@H]1[C@@]1(C)O[C@@H]1CC=C(C)C,,inactive
CCOC(=O)C(Cl)Cc1cc(-n2nc(C)n(C(F)F)c2=O)c(F)cc1Cl (configuration not stated),inconclusive: 25 µM,
